This passage reports binding results from article doi:10.1101/2022.09.12.507586.

No constants are given. Whether binding was seen depends on the method and setting. A result given as binding can be weak or reduced; the word gives no strength. Where a sequence is shown, tags or fusion partners need not be part of it.

The target in the assay is PomY-mCh (His6-tagged full-length PomY with mCherry tag) (Myxococcus xanthus). As to the kind of experiment: confocal fluorescence microscopy of purified proteins.

B1: A488-FtsZ (Cys-tagged FtsZ labelled with Alexa488) (protein, UniProt Q1D0T7 1-405)
chain: MDQFDQNKQAAKIRVVGAGGAGCNAVNTMILSKLDRVDFIAANTDVQALAASKAPTRLQLGQTLTKGLGAGANPEMGREAALESRDQIAAVLEGADMVFVTAGMGGGTGTGAAPIIADIAKSLGCLTVGVVTKPFLFEGNKRRKQAEQGIVELKAAVDTLITIPNQRLLSLSNEPMPLLETFKRADEVLLNAVQGISDLIQYHGYINVDFADVKTIMSDKGIALMGTGNSTGDKRALIAMQQAIASPLLEDVTIDGATGLLINITGGRDMTLQEVNEALTLVHDAADSEAEIIFGSLIDENISDEVKITIIATGFVHRDAPKVRTVAPVVQVPLSRPAPSVLANAREEVASLVPTKGSGSRPLTVESAKSVSARTAVVKDAPLPLDEDQFDIPTFLRRQGQTELP
modifications: Alexa488 on the Cys-tag
B1: the binding result was “binds”.
